Results published in PMC10409759.
No constants are given. Whether binding was seen depends on the method and setting. In cells and extracts the contact can be indirect. Some binding calls cover weakened binding; strength is not graded here. For some of these results: Tags and fused reporters may be left off the sequences shown.

By UniProt entry, the sequences of proteins in these tests, tags left out.
UniProt O75376: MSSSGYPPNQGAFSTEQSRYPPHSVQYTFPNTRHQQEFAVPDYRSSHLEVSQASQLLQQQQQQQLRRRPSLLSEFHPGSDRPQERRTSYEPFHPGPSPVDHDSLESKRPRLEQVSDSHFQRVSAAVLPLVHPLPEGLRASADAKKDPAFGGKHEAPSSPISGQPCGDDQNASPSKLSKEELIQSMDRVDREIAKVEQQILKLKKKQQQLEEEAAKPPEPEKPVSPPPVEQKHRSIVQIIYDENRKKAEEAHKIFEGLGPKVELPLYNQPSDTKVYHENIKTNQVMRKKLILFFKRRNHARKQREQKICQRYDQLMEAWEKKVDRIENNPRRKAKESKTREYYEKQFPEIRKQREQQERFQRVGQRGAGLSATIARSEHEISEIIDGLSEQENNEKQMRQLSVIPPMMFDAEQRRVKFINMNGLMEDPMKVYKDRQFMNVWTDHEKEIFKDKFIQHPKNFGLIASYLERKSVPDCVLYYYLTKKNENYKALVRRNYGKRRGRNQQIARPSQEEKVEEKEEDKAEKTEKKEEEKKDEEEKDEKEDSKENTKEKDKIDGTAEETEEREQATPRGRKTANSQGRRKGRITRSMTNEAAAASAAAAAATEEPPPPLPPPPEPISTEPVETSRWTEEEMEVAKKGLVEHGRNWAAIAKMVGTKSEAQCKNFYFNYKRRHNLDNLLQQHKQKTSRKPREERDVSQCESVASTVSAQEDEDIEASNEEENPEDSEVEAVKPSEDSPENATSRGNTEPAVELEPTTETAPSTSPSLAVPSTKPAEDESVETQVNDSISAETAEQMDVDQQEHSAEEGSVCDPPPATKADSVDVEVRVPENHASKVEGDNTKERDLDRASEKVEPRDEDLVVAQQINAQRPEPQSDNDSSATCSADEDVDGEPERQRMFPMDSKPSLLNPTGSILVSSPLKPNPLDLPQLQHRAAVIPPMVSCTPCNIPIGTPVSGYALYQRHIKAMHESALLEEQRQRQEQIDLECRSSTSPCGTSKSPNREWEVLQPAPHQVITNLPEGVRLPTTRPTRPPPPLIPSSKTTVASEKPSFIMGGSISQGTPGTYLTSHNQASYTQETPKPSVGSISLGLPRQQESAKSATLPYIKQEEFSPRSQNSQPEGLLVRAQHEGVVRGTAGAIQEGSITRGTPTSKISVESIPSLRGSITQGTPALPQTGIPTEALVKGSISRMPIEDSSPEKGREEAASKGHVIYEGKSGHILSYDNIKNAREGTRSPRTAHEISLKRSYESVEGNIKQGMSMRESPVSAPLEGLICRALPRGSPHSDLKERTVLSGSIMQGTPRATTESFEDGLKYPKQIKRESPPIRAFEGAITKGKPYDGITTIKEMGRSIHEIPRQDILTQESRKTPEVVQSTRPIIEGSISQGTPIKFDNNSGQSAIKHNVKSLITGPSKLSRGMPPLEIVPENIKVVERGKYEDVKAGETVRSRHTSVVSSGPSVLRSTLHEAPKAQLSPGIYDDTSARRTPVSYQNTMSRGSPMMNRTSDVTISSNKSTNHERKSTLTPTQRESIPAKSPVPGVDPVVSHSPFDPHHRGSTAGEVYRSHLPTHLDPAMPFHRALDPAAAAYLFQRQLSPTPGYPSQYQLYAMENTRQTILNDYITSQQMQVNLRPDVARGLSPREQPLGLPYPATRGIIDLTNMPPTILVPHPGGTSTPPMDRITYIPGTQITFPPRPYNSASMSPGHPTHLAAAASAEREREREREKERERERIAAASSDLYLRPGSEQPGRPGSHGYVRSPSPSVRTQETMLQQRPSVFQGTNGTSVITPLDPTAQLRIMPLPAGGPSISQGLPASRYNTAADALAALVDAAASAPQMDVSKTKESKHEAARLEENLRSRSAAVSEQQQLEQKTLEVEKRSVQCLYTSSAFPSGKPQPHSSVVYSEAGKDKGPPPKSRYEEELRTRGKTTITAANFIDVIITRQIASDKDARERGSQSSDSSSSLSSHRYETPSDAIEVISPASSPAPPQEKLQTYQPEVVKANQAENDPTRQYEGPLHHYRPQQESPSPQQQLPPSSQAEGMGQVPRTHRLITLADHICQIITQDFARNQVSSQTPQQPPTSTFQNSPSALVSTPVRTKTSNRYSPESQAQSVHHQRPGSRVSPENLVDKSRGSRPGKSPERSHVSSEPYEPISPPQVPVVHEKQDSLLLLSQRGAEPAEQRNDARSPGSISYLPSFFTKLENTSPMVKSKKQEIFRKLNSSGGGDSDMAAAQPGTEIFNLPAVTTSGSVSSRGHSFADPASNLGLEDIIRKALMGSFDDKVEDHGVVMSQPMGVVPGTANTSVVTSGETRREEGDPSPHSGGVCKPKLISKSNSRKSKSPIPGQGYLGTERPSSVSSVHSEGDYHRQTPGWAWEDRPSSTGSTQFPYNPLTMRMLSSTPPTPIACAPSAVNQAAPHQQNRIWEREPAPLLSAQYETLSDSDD
UniProt Q9UJU2: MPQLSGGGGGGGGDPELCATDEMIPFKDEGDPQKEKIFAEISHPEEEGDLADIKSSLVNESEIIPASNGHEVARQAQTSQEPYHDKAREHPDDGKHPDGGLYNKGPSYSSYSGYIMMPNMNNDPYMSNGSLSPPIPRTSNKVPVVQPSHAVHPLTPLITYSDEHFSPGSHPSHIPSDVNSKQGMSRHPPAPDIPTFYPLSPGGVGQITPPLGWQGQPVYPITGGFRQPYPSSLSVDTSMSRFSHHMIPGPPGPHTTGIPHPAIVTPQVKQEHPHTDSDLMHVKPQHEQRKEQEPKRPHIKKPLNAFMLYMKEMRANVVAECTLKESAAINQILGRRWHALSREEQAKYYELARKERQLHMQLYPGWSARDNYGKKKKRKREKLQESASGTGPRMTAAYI

Legend:
[1] = target: T1, Lysine-specific demethylase 4A (KDM4A), endogenous (human (endogenous in CAL-27 and SCC-9)) (UniProt O75164); assay: co-IP; endogenous proteins; whole-cell lysates of CAL-27 and SCC-9; IP with antibodies against LEF1, KDM4A or N-CoR on Dynabeads Protein G, 4 °C; lysis buffer 50 mM Tris-HCl pH 7.4, 150 mM NaCl, 2 mM EDTA, 0.3% NP-40; western blot; IgG as negative control
T1 sequence: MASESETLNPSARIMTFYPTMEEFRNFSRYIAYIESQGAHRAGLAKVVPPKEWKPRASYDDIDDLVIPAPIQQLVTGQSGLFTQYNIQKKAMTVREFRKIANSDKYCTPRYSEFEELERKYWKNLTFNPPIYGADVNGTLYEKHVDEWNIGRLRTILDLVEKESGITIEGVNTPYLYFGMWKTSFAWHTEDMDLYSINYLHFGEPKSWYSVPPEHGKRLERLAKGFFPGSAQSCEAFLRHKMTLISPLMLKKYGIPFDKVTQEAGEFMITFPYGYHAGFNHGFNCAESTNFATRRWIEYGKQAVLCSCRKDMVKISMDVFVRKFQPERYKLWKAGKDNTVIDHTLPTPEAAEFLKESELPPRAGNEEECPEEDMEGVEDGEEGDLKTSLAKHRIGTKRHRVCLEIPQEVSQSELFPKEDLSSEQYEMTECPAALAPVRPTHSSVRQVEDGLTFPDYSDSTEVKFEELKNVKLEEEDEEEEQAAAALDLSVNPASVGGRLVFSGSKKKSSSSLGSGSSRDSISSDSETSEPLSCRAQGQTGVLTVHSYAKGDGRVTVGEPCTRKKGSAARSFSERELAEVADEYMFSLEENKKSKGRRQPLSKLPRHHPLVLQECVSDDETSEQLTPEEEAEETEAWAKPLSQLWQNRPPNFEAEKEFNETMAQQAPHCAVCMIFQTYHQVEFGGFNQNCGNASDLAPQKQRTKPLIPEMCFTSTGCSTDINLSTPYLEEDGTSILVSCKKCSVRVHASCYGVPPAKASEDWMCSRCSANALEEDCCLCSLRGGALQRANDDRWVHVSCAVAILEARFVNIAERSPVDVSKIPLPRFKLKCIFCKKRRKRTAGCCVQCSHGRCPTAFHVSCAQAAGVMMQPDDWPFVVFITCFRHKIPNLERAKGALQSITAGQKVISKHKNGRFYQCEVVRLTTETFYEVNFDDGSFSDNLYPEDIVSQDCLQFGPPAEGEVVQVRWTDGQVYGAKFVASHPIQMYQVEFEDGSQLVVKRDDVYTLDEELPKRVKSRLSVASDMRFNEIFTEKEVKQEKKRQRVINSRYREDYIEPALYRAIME

[2] = target: Nuclear receptor co-repressor (N-CoR), endogenous (human (endogenous in CAL-27 and SCC-9)) (UniProt O75376); assay: as above
[3] = target: T2, Flag-tagged KDM4A (UniProt O75164); assay: co-IP; Flag- and EGFP-tagged proteins overexpressed together in HEK293T; whole-cell lysates; IP with antibodies against Flag and blot against EGFP (Fig. 2E, 2F); IgG or pCMV6 plasmid as negative control
T2 sequence: T1 sequence

[4] = target: T3, GST-fused KDM4A (UniProt O75164); assay: pull-down; GST-fusion protein (~10 μg, from E. coli BL21 lysate; no purification before mixing is described) mixed with 3-10 μl in vitro transcription/translation product (rabbit reticulocyte lysate) in 0.8% BSA in PBS with protease inhibitor; glutathione-agarose beads, 4 °C, 2 h; western blot
T3 sequence: T1 sequence

[5] = target: Lymphoid enhancer-binding factor 1 (LEF1), endogenous (human (endogenous in CAL-27 and SCC-9)) (UniProt Q9UJU2); assay: co-IP; endogenous proteins; whole-cell lysates of CAL-27 and SCC-9; IP with antibodies against LEF1, KDM4A or N-CoR on Dynabeads Protein G, 4 °C; lysis buffer 50 mM Tris-HCl pH 7.4, 150 mM NaCl, 2 mM EDTA, 0.3% NP-40; western blot; IgG as negative control
[6] = target: GST-fused LEF1 (human (cDNA from CAL 27 cells)) (UniProt Q9UJU2); assay: pull-down; GST-fusion protein (~10 μg, from E. coli BL21 lysate; no purification before mixing is described) mixed with 3-10 μl in vitro transcription/translation product (rabbit reticulocyte lysate) in 0.8% BSA in PBS with protease inhibitor; glutathione-agarose beads, 4 °C, 2 h; western blot
[7] = target: Flag-tagged LEF1 (human (cDNA from CAL 27 cells)) (UniProt Q9UJU2); assay: co-IP; Flag- and EGFP-tagged proteins overexpressed together in HEK293T; whole-cell lysates; IP with antibodies against Flag and blot against EGFP (Fig. 2E, 2F); IgG or pCMV6 plasmid as negative control

Molecule: Lymphoid enhancer-binding factor 1 (LEF1), endogenous (from UniProt Q9UJU2 1-399)
- binding [1]: binds
- binding [2]: binds

Molecule: EGFP-tagged LEF1 (from UniProt Q9UJU2 1-399)
- binding [3]: binds

Molecule: in vitro-transcribed/translated LEF1 (from UniProt Q9UJU2 1-399)
- binding [4]: binds

B1: Lysine-specific demethylase 4A (KDM4A), endogenous (protein, UniProt O75164 1-1064)
chain: T1 sequence
- binding [5]: binds

B2: in vitro-transcribed/translated KDM4A (protein, UniProt O75164 1-1064)
chain: T1 sequence
- binding [6]: binds

B3: EGFP-tagged KDM4A (protein, UniProt O75164 1-1064)
chain: T1 sequence
- binding [7]: binds
